Measured values from paper PMC3579733.

Experiments:
[1] = biological target: T1, CheR (Halobacterium salinarum R1 (DSM 671)) (UniProt B0R4J5); experiment: affinity purification with mass spectrometry; one-step and two-step bait fishing taken together (final data set; both methods applied to all baits); the place does not tell which of the two gave the result
T1 sequence: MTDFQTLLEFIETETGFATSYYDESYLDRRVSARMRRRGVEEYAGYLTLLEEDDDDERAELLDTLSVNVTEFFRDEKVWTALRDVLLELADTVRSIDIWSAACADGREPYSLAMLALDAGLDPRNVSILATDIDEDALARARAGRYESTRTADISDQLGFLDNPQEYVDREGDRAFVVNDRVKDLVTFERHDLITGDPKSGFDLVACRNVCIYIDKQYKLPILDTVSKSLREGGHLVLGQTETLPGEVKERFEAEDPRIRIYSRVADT

[2] = biological target: T2, CheW2 (Halobacterium salinarum R1 (DSM 671)) (UniProt Q9HQY8); experiment: as above
T2 sequence: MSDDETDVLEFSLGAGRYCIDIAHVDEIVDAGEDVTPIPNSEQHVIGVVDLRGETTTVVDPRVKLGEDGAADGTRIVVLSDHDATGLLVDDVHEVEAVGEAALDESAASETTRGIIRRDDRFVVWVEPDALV

[3] = biological target: T3, CheW1 (Halobacterium salinarum R1 (DSM 671)) (UniProt Q9HQW5); experiment: as above
T3 sequence: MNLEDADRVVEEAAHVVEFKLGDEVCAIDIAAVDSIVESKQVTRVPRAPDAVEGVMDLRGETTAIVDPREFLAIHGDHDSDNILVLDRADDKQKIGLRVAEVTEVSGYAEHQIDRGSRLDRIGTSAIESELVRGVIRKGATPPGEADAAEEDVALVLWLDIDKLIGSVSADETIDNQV

[4] = biological target: T4, CheA (Halobacterium salinarum R1 (DSM 671)) (UniProt B0R4J9); experiment: as above
T4 sequence: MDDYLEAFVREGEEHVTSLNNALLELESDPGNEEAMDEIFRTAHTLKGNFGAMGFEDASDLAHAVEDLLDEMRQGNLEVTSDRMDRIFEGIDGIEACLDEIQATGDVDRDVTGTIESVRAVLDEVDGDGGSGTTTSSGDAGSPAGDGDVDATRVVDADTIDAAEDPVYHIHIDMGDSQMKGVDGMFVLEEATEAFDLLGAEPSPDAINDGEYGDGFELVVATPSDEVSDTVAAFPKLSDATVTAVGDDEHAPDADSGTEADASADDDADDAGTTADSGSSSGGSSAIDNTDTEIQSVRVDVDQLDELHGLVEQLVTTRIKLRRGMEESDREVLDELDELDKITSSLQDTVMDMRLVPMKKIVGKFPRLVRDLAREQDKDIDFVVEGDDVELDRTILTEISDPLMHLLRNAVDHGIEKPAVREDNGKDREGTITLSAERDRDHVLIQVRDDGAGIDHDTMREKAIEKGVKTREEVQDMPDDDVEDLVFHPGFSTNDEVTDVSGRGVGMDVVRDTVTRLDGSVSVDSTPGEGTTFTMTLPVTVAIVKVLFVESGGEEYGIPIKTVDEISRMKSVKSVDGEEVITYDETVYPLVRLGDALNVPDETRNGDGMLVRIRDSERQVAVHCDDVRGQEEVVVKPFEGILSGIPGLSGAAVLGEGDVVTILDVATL

[5] = biological target: T5, CheY (Halobacterium salinarum R1 (DSM 671)) (UniProt B0R4K1); experiment: as above
T5 sequence: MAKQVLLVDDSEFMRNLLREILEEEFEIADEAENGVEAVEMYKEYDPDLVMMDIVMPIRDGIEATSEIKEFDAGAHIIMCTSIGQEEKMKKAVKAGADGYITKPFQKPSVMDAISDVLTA

[6] = biological target: T6, CheC1 (Halobacterium salinarum R1 (DSM 671)) (UniProt B0R4J8); experiment: as above
T6 sequence: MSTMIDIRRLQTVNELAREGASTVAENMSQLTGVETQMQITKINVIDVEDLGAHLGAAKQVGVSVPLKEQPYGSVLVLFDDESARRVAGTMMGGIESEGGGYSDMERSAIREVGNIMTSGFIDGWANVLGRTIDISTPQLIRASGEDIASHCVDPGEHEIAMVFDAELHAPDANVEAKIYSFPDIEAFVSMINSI

[7] = biological target: T7, CheC2 (Halobacterium salinarum R1 (DSM 671)) (UniProt Q9HPJ6); experiment: as above
T7 sequence: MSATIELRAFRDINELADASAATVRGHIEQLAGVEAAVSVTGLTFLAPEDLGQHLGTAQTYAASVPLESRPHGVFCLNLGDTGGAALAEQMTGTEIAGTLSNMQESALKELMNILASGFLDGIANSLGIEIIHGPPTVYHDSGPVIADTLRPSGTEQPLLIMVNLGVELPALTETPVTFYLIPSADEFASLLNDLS

[8] = biological target: T8, CheF1 (Halobacterium salinarum R1 (DSM 671)) (UniProt B0R4J3); experiment: as above
T8 sequence: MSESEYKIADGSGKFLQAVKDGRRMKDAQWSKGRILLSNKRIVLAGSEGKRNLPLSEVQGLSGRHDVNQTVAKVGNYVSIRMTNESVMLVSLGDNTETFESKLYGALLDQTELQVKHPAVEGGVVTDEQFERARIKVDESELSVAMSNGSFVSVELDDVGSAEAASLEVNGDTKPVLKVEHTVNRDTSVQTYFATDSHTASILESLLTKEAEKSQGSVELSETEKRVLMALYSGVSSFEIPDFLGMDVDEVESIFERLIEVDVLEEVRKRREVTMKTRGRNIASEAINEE

[9] = biological target: T9, CheB (Halobacterium salinarum R1 (DSM 671)) (UniProt B0R4K0); experiment: as above
T9 sequence: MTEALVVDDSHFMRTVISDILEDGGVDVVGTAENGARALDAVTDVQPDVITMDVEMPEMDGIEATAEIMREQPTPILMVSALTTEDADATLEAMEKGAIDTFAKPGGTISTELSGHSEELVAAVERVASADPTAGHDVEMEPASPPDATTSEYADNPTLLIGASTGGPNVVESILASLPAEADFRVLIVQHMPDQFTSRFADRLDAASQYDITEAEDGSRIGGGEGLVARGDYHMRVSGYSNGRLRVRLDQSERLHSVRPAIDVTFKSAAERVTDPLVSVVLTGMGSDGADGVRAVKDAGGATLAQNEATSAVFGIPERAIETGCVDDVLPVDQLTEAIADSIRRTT

[10] = biological target: T10, CheF2 (Halobacterium salinarum R1 (DSM 671)) (UniProt B0R4J4); experiment: as above
T10 sequence: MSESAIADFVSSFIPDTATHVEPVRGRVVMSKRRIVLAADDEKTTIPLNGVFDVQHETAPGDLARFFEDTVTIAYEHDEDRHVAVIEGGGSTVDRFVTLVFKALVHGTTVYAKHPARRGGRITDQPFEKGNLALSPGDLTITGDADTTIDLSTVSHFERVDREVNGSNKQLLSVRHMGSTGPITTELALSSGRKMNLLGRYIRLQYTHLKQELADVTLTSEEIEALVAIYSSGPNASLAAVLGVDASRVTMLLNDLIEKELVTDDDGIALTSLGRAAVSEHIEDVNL

[11] = biological target: T4, CheA (Halobacterium salinarum R1 (DSM 671)); experiment: affinity purification with mass spectrometry; one-step bait fishing: lysates of the bait-CBD strain (13C6-leucine) and of the bait-control strain without CBD (12C6-leucine) mixed, one cellulose column, CFE buffer (3 M KCl, 1 M NaCl, 400 mM NH4Cl, 40 mM MgCl2, 10 mM Tris/HCl pH 7.5), washes with 0.5% NP40, room temperature; SILAC, association score > 7 counts as interaction
[12] = biological target: OE4643R (Halobacterium salinarum R1 (DSM 671)); experiment: affinity purification with mass spectrometry; one-step and two-step bait fishing taken together (final data set; both methods applied to all baits); the place does not tell which of the two gave the result
[13] = biological target: T4, CheA (Halobacterium salinarum R1 (DSM 671)); experiment: affinity purification with mass spectrometry; two-step bait fishing: bait-CBD bound to a cellulose column and stringently washed (CFE + 1% NP40 + 20% ethylene glycol), then incubated with lysate of wild type cells (12C6-leucine); plain CBD column with 13C6-leucine lysate as control; SILAC, association score > 7 counts as interaction; only the target purified
[14] = biological target: CheC3 (Halobacterium salinarum R1 (DSM 671)); experiment: affinity purification with mass spectrometry; one-step and two-step bait fishing taken together (final data set; both methods applied to all baits); the place does not tell which of the two gave the result
[15] = biological target: CheD (Halobacterium salinarum R1 (DSM 671)); experiment: as above

Molecule: Htr12 (receptor)
binding [1]: binds | binding [2]: no binding | binding [3]: no binding | binding [4]: no binding | binding [5]: no binding

Molecule: CheC3 (Halobacterium salinarum R1 (DSM 671))
binding [6]: no binding | binding [7]: no binding

Molecule: HemAT (receptor)
binding [8]: no binding | binding [1]: no binding | binding [9]: no binding | binding [6]: no binding | binding [7]: no binding | binding [2]: no binding | binding [3]: no binding | binding [10]: no binding | binding [4]: no binding | binding [5]: no binding

B1: CheW1 (protein, UniProt Q9HQW5 1-178)
chain: T3 sequence
binding [11]: binds | binding [12]: no binding | binding [5]: binds | binding [13]: binds

Further lines, results first:

binding [8]: no binding | binding [1]: no binding | binding [9]: no binding | binding [6]: no binding | binding [7]: no binding | binding [2]: no binding | binding [3]: no binding | binding [10]: no binding | binding [4]: no binding | binding [5]: no binding
Molecule: Htr9 (receptor)

binding [14]: no binding | binding [6]: no binding | binding [7]: no binding
B2: CheY (protein, UniProt B0R4K1 1-120)
chain: T5 sequence

binding [8]: no binding | binding [9]: binds | binding [7]: binds | binding [15]: no binding | binding [10]: no binding
B3: CheC1 (protein, UniProt B0R4J8 1-195)
chain: T6 sequence

These are yes or no findings as the source states them, for the method shown. In cells and extracts the contact can be indirect. These calls come from enrichment with a bait or labelling near it, and not all partners need be listed. For part of these data: No binding means not detected with the bait. One block for each molecule: values may come before it.
